Results from paper PMC6899524.
No constants are given. Whether binding was seen depends on the method and setting. Some entries that bind do so weakly or less than the wild type.

T1: apoptotic protease activating factor 1 (APAF1) (human (endogenous in U2OS)), O14727
T1 chain: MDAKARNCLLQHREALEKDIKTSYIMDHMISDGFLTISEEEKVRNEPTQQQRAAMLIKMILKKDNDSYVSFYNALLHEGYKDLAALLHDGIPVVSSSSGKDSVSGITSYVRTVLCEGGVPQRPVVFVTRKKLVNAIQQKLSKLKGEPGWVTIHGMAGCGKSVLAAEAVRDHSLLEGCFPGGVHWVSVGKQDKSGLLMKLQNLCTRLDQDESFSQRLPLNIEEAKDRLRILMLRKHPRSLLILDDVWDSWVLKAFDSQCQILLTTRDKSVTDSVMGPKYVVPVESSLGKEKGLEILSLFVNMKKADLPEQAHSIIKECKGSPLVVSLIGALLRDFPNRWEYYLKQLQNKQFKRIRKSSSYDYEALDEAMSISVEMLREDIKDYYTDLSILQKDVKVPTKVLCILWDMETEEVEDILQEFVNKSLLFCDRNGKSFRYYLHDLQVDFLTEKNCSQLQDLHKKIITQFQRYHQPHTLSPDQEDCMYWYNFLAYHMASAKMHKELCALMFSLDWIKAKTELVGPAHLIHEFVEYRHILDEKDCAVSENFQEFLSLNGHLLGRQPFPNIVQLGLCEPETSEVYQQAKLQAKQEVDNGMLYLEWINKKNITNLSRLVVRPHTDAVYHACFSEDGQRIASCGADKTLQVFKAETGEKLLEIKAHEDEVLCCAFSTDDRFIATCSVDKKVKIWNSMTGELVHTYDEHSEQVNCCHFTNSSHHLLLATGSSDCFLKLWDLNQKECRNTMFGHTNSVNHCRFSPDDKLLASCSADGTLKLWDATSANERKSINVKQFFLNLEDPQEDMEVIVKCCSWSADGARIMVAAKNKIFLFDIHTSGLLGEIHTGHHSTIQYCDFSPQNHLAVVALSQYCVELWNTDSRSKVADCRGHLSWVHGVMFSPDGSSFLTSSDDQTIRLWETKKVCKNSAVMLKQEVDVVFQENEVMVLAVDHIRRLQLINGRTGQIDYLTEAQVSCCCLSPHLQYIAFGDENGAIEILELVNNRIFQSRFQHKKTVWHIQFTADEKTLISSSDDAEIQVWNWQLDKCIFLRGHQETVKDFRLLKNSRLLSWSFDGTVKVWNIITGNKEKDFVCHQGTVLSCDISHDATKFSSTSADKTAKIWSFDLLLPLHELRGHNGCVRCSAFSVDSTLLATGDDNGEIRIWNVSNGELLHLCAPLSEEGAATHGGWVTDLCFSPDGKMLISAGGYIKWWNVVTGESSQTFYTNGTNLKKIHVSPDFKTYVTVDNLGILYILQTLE


Assays:
[1] = molecular target: apoptotic protease activating factor 1 (APAF1) (human (endogenous in U2OS)) (UniProt O14727); assay: sucrose gradient sedimentation; extracts of H6 NEDP1 knockout U2OS cells, DMSO or etoposide (50 µM, 15 h), on a 10%-50% sucrose gradient, fractions blotted for APAF1
[2] = molecular target: T1, apoptotic protease activating factor 1 …; assay: sucrose gradient sedimentation; extracts of parental U2OS cells exposed to etoposide (50 µM, 15 h) on a 10%-50% sucrose gradient, fractions blotted for APAF1; conditions: remark: other sources report otherwise

| Molecule | binding [1] | binding [2] |
| --- | --- | --- |
| apoptotic protease activating factor 1 (APAF1) (from UniProt O14727 1-1248) | no binding (condition: in H6 NEDP1 knockout cells) |  |
| apoptotic protease activating factor 1 (APAF1), O14727 1-1248 (protein) MDAKARNCLLQHREALEKDIKTSYIMDHMISDGFLTISEEEKVRNEPTQQQRAAMLIKMILKKDNDSYVSFYNALLHEGYKDLAALLHDGIPVVSSSSGKDSVSGITSYVRTVLCEGGVPQRPVVFVTRKKLVNAIQQKLSKLKGEPGWVTIHGMAGCGKSVLAAEAVRDHSLLEGCFPGGVHWVSVGKQDKSGLLMKLQNLCTRLDQDESFSQRLPLNIEEAKDRLRILMLRKHPRSLLILDDVWDSWVLKAFDSQCQILLTTRDKSVTDSVMGPKYVVPVESSLGKEKGLEILSLFVNMKKADLPEQAHSIIKECKGSPLVVSLIGALLRDFPNRWEYYLKQLQNKQFKRIRKSSSYDYEALDEAMSISVEMLREDIKDYYTDLSILQKDVKVPTKVLCILWDMETEEVEDILQEFVNKSLLFCDRNGKSFRYYLHDLQVDFLTEKNCSQLQDLHKKIITQFQRYHQPHTLSPDQEDCMYWYNFLAYHMASAKMHKELCALMFSLDWIKAKTELVGPAHLIHEFVEYRHILDEKDCAVSENFQEFLSLNGHLLGRQPFPNIVQLGLCEPETSEVYQQAKLQAKQEVDNGMLYLEWINKKNITNLSRLVVRPHTDAVYHACFSEDGQRIASCGADKTLQVFKAETGEKLLEIKAHEDEVLCCAFSTDDRFIATCSVDKKVKIWNSMTGELVHTYDEHSEQVNCCHFTNSSHHLLLATGSSDCFLKLWDLNQKECRNTMFGHTNSVNHCRFSPDDKLLASCSADGTLKLWDATSANERKSINVKQFFLNLEDPQEDMEVIVKCCSWSADGARIMVAAKNKIFLFDIHTSGLLGEIHTGHHSTIQYCDFSPQNHLAVVALSQYCVELWNTDSRSKVADCRGHLSWVHGVMFSPDGSSFLTSSDDQTIRLWETKKVCKNSAVMLKQEVDVVFQENEVMVLAVDHIRRLQLINGRTGQIDYLTEAQVSCCCLSPHLQYIAFGDENGAIEILELVNNRIFQSRFQHKKTVWHIQFTADEKTLISSSDDAEIQVWNWQLDKCIFLRGHQETVKDFRLLKNSRLLSWSFDGTVKVWNIITGNKEKDFVCHQGTVLSCDISHDATKFSSTSADKTAKIWSFDLLLPLHELRGHNGCVRCSAFSVDSTLLATGDDNGEIRIWNVSNGELLHLCAPLSEEGAATHGGWVTDLCFSPDGKMLISAGGYIKWWNVVTGESSQTFYTNGTNLKKIHVSPDFKTYVTVDNLGILYILQTLE |  | binds |
